Assay results published in patent US20080312101A1.
Results are given in words; binding and its absence hold for the method and conditions named. Tags and fused reporters may be left off the sequences shown.

Biological target: Hepatitis C virus E2 protein (recombinant) (Hepatitis C virus)
Assay: phage panning on protein-coated ELISA wells, eluted phage counted as cfu

B1: HAcp3* (HA tag fused to DIS linker2-modified M13 coat protein 3), displayed on recombinant phage (protein)
chain: QVKLLEYPYDVPDYATSGQAGQGGGGSPFVCEYQGQSSDLPQPPVNAGGGSGGGSGGGSEGGGSEGGGSEGGGSEGGGSGGGSGSGDFDYEKMANANKGAMTENADENALQSDAKGKLDSVATDYGAAIDGFIGDVSGLANGNGATGDFAGSNSQMAQVGDGDNSPLMNNFRQYLPSLPQSVECRPFVFGAGKPYEFSIDCDKINLFRGVFAFLLYVATFMYVFSTFANILRNKES
Q: Which binding does the source give for B1 here?
A: no binding
